According to publication PMC5414174, “DNA replication licensing factor Cdc6 and Plk4 kinase antagonistically regulate centrosome duplication via Sas-6” (Nature Communications, 2017):
These are yes or no findings as the source states them, for the method shown. Binding seen in cells or lysates may run through a third protein. Binding calls can cover weak binding; strength is not graded here. For part of these data: Tags and fused reporters may be left off the sequences shown. Blank lines part the entries; values can stand above or below the molecule they belong to.

Experiments:
GST-tagged Cdc6 (human) = molecular target: T1, GST-tagged Cdc6 (human) (UniProt Q99741); test: pull-down; Sepharose beads coupled with purified GST-Cdc6 incubated with in vitro transcribed and translated HA-cyclin A; western blot with HA antibody; only the target purified
T1 sequence: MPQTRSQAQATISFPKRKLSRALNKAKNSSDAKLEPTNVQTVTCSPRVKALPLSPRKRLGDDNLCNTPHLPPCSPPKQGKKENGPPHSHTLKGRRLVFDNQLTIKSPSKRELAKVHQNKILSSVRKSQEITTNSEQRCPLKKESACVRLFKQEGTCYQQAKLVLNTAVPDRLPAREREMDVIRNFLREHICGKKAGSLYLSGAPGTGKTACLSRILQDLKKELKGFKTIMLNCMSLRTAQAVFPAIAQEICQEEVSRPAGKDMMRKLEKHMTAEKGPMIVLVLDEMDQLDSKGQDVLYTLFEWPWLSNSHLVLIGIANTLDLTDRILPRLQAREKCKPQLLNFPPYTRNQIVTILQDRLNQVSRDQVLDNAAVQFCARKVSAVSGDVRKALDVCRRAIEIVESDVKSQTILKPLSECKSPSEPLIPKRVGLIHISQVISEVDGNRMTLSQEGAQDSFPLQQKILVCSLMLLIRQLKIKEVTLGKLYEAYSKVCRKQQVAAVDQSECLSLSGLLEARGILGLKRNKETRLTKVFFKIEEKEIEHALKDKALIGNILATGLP

[1] = molecular target: T2, Cdc6 (co-IP in vivo of Supplementary Fig. 1g) (human) (UniProt Q99741); test: co-IP; in vivo; antibodies and constructs not told in the text (Supplementary Fig. 1g)
T2 sequence: T1 sequence

[2] = molecular target: GFP-tagged cyclin A WT (human); test: co-IP; co-transfected HEK293 cells, total cell extract, IP with GFP antibody on protein A Sepharose, 20 mM Tris, 125 mM NaCl, 0.5% NP-40, pH 7.5, 2 h at 4 °C; western blot with Myc and GFP antibodies; in Fig. 4d cells released into S phase

- binding (GST-tagged Cdc6 (human)): binds
Molecule: HA-tagged cyclin A (human)

- binding [1]: binds
Molecule: cyclin A (co-IP in vivo of Supplementary Fig. 1g) (human)

- binding [2]: binds
B1: His-tagged Cdc6 (purified) (natural protein, human, UniProt Q99741 1-560, looked up)
chain: T1 sequence
notes: human Cdc6; also called His-Cdc6; source: E. coli BL21, purified (His60 Ni Superflow resin)
